Toxoplasma: 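Assay of Toxoplasma gondii numbers, read through their beta-galactosidase reporter with a colour substrate. Tested at 10 µM. The record gives no direction; the compounds picked for IC50 retests had high values, so higher reads as fewer parasites. About 67,000 compounds were tested under these conditions; 0.38% (about 260) showed 50% or more at least once.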
Leishmania in macrophages: 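Cell assay of Leishmania donovani living inside macrophages; the read-out is not stated. Tested at 30 µM. Direction is inferred from retests: higher values go with stronger inhibition. Size under these conditions: about 69,000 compounds, about 1,000 of them at 50% or above in at least one test.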

The filed quantity is “Percent Effect” (%).
The record does not define 0% and 100%; most values in the screen are far below 50% and negative numbers occur (in some assays of this library far below -100).
This is an unselected part of the compounds tested.
Two or more numbers in one place are separate tests of the same structure; such repeats can differ widely.
A dash means the value is not listed here; it may have been measured.

SMILES | Toxoplasma | Leishmania in macrophages
O=C(O)C(F)(F)F.[H][C@@]12CCN(c3ccc(C)cc3)C[C@@]1([H])O[C@@H](C(=O)NCc1ccco1)C2 | -14.23 | 10.64
C[C@H](NC(=O)N1CCC(Cc2ccccc2)CC1)C(=O)O | 16.71 | -10.39
[H][C@@]12CS(=O)(=O)C[C@]1([H])N(Cc1ncc[nH]1)CCN2CC1CC1 | 4.385 | 19.51
CC(=O)N1CCC(C(=O)NCCN2CCC(C)CC2)CC1 | 1.279 | 27.55
COC[C@]1(O)CCN(C(=O)c2cccc(CN(C)C)c2)CC1(C)C | 13.81 | 18.71
[H][C@@]12CS(=O)(=O)C[C@]1([H])N(Cc1ccsc1)CCN2C(=O)C1CCC1 | 4.298 | 21.99
Cc1nc[nH]c1-c1nccn1-c1cccc(CN2CCCC2)c1 | 1.326 | -4.762
COc1ccc(N(c2ccc(C)cc2)c2ccc(C(=O)O)s2)cc1 | -19.88 | 4.701
O=C(C1CCOC1)N1CCN(CC2CC2)c2ccccc21 (centres unmarked) | 7.64 | -4.06
Cc1cc(OCCC(=O)Nc2cccc(F)c2)nnc1C | 11.4 | 13.36
CC(C)c1cc(C(=O)N2CCC3(CCc4ccccc4C(=O)N3)C2)no1 (centres unmarked) | 14.66 | 3.723
CCc1csc(C2CCCN(C(=O)C3=NN(CC)C(=O)CC3)C2)n1 (centres unmarked) | 3.812 | -22.2
O=C(O)C(F)(F)F.[H][C@@]12CCN(S(=O)(=O)c3cccnc3)C[C@]1(C(=O)NC)CCO2 | 8.553 | -13.7
Cl.Cl.Cn1cc(C(=O)NCc2cncc3c2CCN(c2ccccn2)C3)cn1 | 11.2 | 10.86
Cc1nn(C)c(C)c1C1CCCN1C(=O)c1cnccn1 (centres unmarked) | -15.06 | 8.61
Cn1c(N)nnc1SCc1cc(Br)ccc1Cl | - | 11.13
CCSc1cc(C(=O)NCCC(=O)N(C)C)ccn1 | 7.287 | 38.21
CC(C)Oc1ncccc1CNC(=O)Nc1ccccn1 | -4.367 | 20.08
CCCc1ccc(C(=O)N2Cc3c(Cn4ccnc4)nn(C)c3C2)cc1.O=CO | 0.5059 | -4.27
[H][C@@]12CN(Cc3cccnc3)C[C@]1([H])C(=O)N(C)C21CCN(C(C)=O)CC1 | -3.696 | 12.55
O=C(O)C(F)(F)F.[H][C@@]12COC[C@]1(CNC(=O)c1ccccc1)CN(Cc1scnc1C)C2 | -14.19 | 34.04
Cc1cc2nc(C(C)C)cc(N3CCN(S(N)(=O)=O)CC3)n2n1 | 14.02 | 49.49
O=C(c1cc(CC2(NCc3ccccc3)COC2)no1)N1CCCCC1 | -3.681 | -26.26
CC(C)c1cc(NCC2(CO)CCC2)ncn1 | 0.4764 | -9.215
CC(C)CNC(=O)Nc1cccc(CN2CCOC2=O)c1 | 2.227 | -2.782
CN(C)CCOc1ccc(CNC(=O)c2cccc(Cl)c2Cl)cc1 | 9.82 | -4.985
CCOc1ccc(S(=O)(=O)N(CCOC)Cc2ccncc2)cc1F | 10.31 | 22.46
[H][C@]12CCC[C@@]1(COCc1cccnc1)CN(C(=O)c1cocn1)C2 | 1.438 | 13.23
COCCN1CCn2c(nc3cc(C(=O)NC(C)C)ccc32)C1 | 9.552 | 11.36
Cc1nn(C)c(C)c1C(C)NCc1ccsc1 (centres unmarked) | -18.73 | 2.957
O=C(C1CCC1)N1CCC2(CCCN2CC2CC2)CC1.O=C(O)C(F)(F)F | -28.82 | 19.61
COC(=O)COc1nc(CC(C)C)c2c(c1C#N)CCCC2 | -27.02 | -16.25
Cc1nc(-c2c(-c3ccccc3)ncn2[C@H]2C[C@@H](C(=O)O)N(C)C2)co1 | -0.6866 | 30.47
CS(=O)(=O)CCCN(CCCO)C1CCc2ccccc21 (centres unmarked) | 4.211 | -38.77
CC(NC(=O)N1CCS(=O)(=O)CC1)c1c(F)cccc1Cl (centres unmarked) | 9.626 | -16.95
CC(C)=CCCC1(C)CCC(=O)N(CCNc2nc(C)cc(=O)[nH]2)C1 (centres unmarked) | 0.4812 | 18.61
[H][C@@]12CN(C(=O)NCC)C[C@]1([H])OCC(=O)N2CC1CCCCC1 | 1.562 | -0.1488
Cc1ccc(C(=O)N2CCc3nc4c(C)csc4c(=O)n3CC2)cn1 | -31.28 | 25.29 and 9.85
CSc1cccc(CN(C)C(=O)Nc2nc(C)n(C)n2)c1 | 1.931 | 6.307
CCc1noc(C(C)N2CCC(NS(=O)(=O)c3cccs3)CC2)n1 (centres unmarked) | 1.467 | 24.15
Cn1ccnc1CN1C[C@@H](CN2CCCC2)[C@@H](CO)C1 | 5.499 | 30.27
COc1ccc(CN(C)Cc2c(C)noc2C)c(Cl)c1OC | 4.945 | -3.88
c1cnnc(N2CCCC2CNCc2nc(-c3ccsc3)no2)c1 (centres unmarked) | 19.17 | 23.66
Cc1c(S(=O)(=O)NCC(C)C)cnn1C | 3.021 | 9.989
CCc1nnc2n1CCN(CC(O)CN1CCC(C)CC1)C2 (centres unmarked) | 6.261 | 16.43
COc1cccc(OC)c1-c1ccnc2cc(CC(=O)NC(C)C)nn12 | -13.79 | 1.994 and 12.98
CC(C)OCCC(=O)NCC(O)c1c(Cl)cccc1Cl (centres unmarked) | 8.77 | 16.61
COc1ncc(C2(O)CCN(Cc3c(F)cccc3F)CC2)c(OC)n1.Cl | 10.01 | -0.539
O=C(CCCn1cncn1)N1CCC2(CCCN(C3CCCC3)C2=O)C1 (centres unmarked) | -5.022 | 9.717
CCc1noc(C2CCCCN2C(=O)c2ccoc2C)n1 (centres unmarked) | -2.51 | -4.619
[H][C@@]12C[C@@H](OC)C[C@]1([H])CN(C(=O)c1cccc3c1OCCO3)C2 | 8.011 | -7.014
CCOCc1ncn2c1CN(C(=O)Nc1cccc(C)c1)CC2 | -9.784 | 13.22
CN1CCc2c(C#N)c(NCCCO)n3cnnc3c2C1 | -0.2319 | 16.66 and -19.64
CCc1nc(CNC(=O)C2CCC(=O)N(Cc3ccccc3F)C2)no1 (centres unmarked) | -11.39 | 0.4843
c1coc(-c2noc(CN3CCc4cncnc4C3)n2)c1 | 6.143 | 24.35
CCCn1nc2c(cc1=O)CN(c1ncnc3sccc13)CC2 | 8.636 | 38.35
CC(NC(=O)C(C)(C)C#N)c1ccc(OCC2CC2)c(F)c1 (centres unmarked) | 3.479 | 3.951
Cc1ccc(C(=O)N2CCC3(CCCN(c4ccc(C)nn4)C3)C2)cn1 (centres unmarked) | 2.033 | 48.63

The first 4 entries again:

SMILES	Toxoplasma	Leishmania in macrophages
O=C(O)C(F)(F)F.[H][C@@]12CCN(c3ccc(C)cc3)C[C@@]1([H])O[C@@H](C(=O)NCc1ccco1)C2	-14.23	10.64
C[C@H](NC(=O)N1CCC(Cc2ccccc2)CC1)C(=O)O	16.71	-10.39
[H][C@@]12CS(=O)(=O)C[C@]1([H])N(Cc1ncc[nH]1)CCN2CC1CC1	4.385	19.51
CC(=O)N1CCC(C(=O)NCCN2CCC(C)CC2)CC1	1.279	27.55

Measurements from “University of Dundee, Small-Polar-MMV Screening Library” (2021), ChEMBL document CHEMBL3988442.